# Percent effect of library compounds

Protein sequences, listed by entry. Tags and fused reporters are not part of them. Residues count along the entry.
UniProt Q4DA54, 1-478: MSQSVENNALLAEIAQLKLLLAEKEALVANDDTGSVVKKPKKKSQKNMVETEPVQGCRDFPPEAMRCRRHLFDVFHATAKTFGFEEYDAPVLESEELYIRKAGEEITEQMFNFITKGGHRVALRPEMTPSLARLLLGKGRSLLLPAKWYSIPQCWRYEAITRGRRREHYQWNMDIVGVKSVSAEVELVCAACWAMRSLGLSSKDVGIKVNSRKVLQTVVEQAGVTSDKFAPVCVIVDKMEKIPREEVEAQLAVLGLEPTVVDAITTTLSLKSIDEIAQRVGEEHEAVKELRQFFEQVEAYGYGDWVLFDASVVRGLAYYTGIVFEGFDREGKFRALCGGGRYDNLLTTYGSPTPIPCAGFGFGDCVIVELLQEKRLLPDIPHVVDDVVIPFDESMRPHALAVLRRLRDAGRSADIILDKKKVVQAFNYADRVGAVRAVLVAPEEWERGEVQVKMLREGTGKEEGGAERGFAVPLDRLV
UniProt P9WNZ1, whole entry: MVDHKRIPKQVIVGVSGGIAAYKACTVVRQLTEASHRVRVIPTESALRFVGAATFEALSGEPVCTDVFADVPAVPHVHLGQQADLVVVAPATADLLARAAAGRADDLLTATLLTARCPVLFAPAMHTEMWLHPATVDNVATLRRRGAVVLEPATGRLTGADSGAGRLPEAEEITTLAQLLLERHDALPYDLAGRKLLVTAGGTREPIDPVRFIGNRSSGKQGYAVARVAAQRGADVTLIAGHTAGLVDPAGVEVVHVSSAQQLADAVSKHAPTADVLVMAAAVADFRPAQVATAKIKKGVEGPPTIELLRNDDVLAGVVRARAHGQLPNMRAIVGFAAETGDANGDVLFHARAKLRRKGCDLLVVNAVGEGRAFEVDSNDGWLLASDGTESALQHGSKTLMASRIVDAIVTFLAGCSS
UniProt P9WPC5, whole entry: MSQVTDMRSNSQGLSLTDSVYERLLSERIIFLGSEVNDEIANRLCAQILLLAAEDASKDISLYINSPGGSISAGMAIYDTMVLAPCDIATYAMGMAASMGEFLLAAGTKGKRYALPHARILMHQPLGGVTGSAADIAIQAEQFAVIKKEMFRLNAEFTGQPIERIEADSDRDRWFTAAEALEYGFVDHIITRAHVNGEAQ
UniProt P9WPC3, whole entry partner: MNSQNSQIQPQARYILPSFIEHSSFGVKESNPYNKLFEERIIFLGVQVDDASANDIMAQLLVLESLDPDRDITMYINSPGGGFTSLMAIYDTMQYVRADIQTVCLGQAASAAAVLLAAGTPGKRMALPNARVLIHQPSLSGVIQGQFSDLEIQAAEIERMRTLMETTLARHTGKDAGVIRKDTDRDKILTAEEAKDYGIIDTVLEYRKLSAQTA
UniProt Q8IDJ8, 1-583: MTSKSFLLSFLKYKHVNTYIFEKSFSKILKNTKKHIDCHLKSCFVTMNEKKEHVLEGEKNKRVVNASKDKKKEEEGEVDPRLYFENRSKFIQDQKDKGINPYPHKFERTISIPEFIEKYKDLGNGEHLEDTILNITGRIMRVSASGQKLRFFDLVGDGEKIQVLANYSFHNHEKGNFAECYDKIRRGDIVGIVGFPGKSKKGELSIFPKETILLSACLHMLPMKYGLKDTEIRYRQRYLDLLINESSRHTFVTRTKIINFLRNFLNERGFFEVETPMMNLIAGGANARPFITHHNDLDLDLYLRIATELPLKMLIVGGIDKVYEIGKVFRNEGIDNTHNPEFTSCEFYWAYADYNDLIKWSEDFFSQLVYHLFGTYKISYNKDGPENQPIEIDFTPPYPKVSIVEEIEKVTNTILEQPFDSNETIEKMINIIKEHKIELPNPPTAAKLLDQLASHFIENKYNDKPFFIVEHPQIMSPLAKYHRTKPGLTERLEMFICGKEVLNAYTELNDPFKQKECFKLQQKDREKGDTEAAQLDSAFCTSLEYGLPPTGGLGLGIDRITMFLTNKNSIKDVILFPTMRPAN

Measurements from “University of Dundee, Small-Polar-MMV Screening Library” (2021), ChEMBL document CHEMBL3988442.

A: 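Cell assay of Leishmania donovani living inside macrophages; the read-out is not stated. Concentration: 30 µM. Higher reads as stronger inhibition (inferred: compounds with an IC50 in retests scored well above the rest). Of about 69,000 compounds tested this way, about 1,000 (1.5%) reached 50% or more in at least one test.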
B: 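Enzyme assay of histidyl-tRNA synthetase; the read-out is not stated. Target: Histidine-tRNA ligase, Trypanosoma cruzi CL Brener (UniProt Q4DA54). Compounds at 30 µM. The record gives no direction; compounds that gave an IC50 in retests scored well above the rest, so higher reads as stronger inhibition. Of about 69,000 compounds tested this way, about 31 (0.045%) reached 50% or more in at least one test.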
C: 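Coenzyme A biosynthesis protein CoaBC, Mycobacterium tuberculosis (UniProt P9WNZ1). Enzyme assay of CoaBC with a phosphate dye (Biomol Green) read at 650 nm. Concentration: 30 µM. Direction is inferred from only a few compounds that gave an IC50; most scored high, so higher reads as stronger inhibition. Most strong results did not repeat in a second test. Size under these conditions: about 67,000 compounds, about 40 of them at 50% or above in at least one test.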
D: 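ClpP1P2, Mycobacterium tuberculosis (UniProt P9WPC5 and UniProt P9WPC3). Protease assay of ClpP1P2, read by the AMC dye that it sets free. Tested at 50 µM. Direction is inferred from only a few compounds that gave an IC50; most scored high, so higher reads as stronger inhibition. Most other retested compounds had strongly negative values. Size under these conditions: about 69,000 compounds, about 10 of them at 50% or above in at least one test.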
E: 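Enzyme assay of the cytosolic lysyl-tRNA synthetase in 384-well plates, read by luminescence. Target: Lysine-tRNA ligase, Plasmodium falciparum 3D7 (UniProt Q8IDJ8). Tested at 30 µM. Higher reads as stronger inhibition, judged from the few compounds that gave an IC50. Of about 69,000 compounds tested this way, about 49 (0.071%) reached 50% or more in at least one test.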

Values are the deposited “Percent Effect”, in %.
The controls that fix the scale are not given in the record; negative values are as filed.
Compounds were drawn at random from those tested, without regard to their results.
A dash means the value is not listed here; it may have been measured.

structure	A	B	C	D	E
Cc1nc2c(s1)C(N(C)C(=O)NCCCC(C)(C)CO)CCC2 (centres undefined)	-61.22	4.762	1.033	-0.1922	3.153
[H][C@]12CN(c3ccnc(N)n3)CC[C@@]1(O)CCN(S(C)(=O)=O)C2	9.711	-	-	-	-
COC(C)c1noc(CN(C)c2nccnc2C#N)n1 (centres undefined)	9.779	4.255	-2.41	4.979	5.544
O=C(NCc1ccc(Cl)cc1)N1CCN(CC(O)C2CC2)CC1 (centres undefined)	-	9	2.503	-6.71	1.226
Cc1ccc(OC2(C(=O)O)CCN(C/C=C/c3ccco3)CC2)cn1	15.03	0	13.73	3.958	1.19
O=S1(=O)CCN(CCCc2ccc(Cl)cc2)CC1	12.29	2.083	-7.595	-7.047	1.918
O=C(c1ccc(S(=O)(=O)NCC(F)F)cc1)N1C[C@H]2CNC[C@H]2C1	-	8.046	4.551	-2.123	1.739
CN(CC1CCN(CCO)CC1)CC(O)c1ccc(F)cc1 (centres undefined)	1.367	8.046	-19.6	-1.372	5.668
Cc1ccc(OCCN(C)S(=O)(=O)c2cnn(C)c2)cc1	-14.35	2.632	-0.1148	-0.8696	4.169
CCC(CC)NCC(C)Oc1cccnc1 (centres undefined)	-12.63	-1.117	0.7712	-5.069	4.427
O=C(O)C(F)(F)F.[H][C@@]12CCCO[C@]1([H])[C@@H](Oc1ccccn1)CN2C(=O)N(C)C	27.54	-	-	-	-
O=C(c1cc(C2CC2)[nH]n1)N1CCN(Cc2ccccc2)CC1	7.268	1.744	4.167	0.7572	7.156
O=C(NC[C@H]1OC[C@@H](NCc2ccccc2)[C@@H]1O)Nc1ccccc1	20.32	4.348	15.23	-3.311	7.516
CCN(Cc1ccco1)C(=O)NCc1nnc2n1CCCCC2	-4.351	2.956	-2.564	-3.931	3.497
O=C(c1ccnc(N2CCOC(c3ccc(Cl)cc3)C2)c1)N1CCCC1 (centres undefined)	18.3	3.352	7.969	1.018	2.158
CC(C)C(N)C1=N/C(=C2\N=CN=N2)NO1 (centres undefined)	-16.45	1.266	1.202	-8.788	0.8552
COCc1c(Cl)cccc1NC(=O)NCc1cccc(N(C)C)n1	-33.19	9.524	0.2066	-8.127	-0.6077
O=C(C1CNCCO1)N1CCC(c2cc(N3CCCC3)ncn2)CC1 (centres undefined)	-9.261	-2.128	2.664	-8.577	-1.17
c1cnc(-c2nn3c(CN4CCCCCC4)nnc3s2)cn1	49.28	-5.217	4.157	14.8	6.007
Cc1nccc(C(=O)N2CCCC(c3cc(C(F)(F)F)[nH]n3)C2)n1 (centres undefined)	20.86	1.17	4.847	-12.21	-1.397
CC(C)CN1CCC2(CCN(Cc3nccs3)CC2)C1=O	-	4.478	0.3226	-10.27	0.9124
CCN(Cc1nonc1C)C(=O)c1ccc(Br)o1	25.68	8.995	-0.4073	1.898	10.15
Cc1nnc(N(CCC#N)CCC#N)s1	-2.802	6.571	-5.023	-13.93	0.9254
COc1ccc(OC)c(C2CCN(C3CCOCC3)C2)c1 (centres undefined)	13.28	-1.657	-2.288	14.78	-1.664
O=C(O)C(F)(F)F.[H][C@@]12C[C@H](c3nc(C)no3)CN(Cc3ccc(F)cc3)[C@]1([H])CCO2	51.58	-	-	-	-
O=C(O)C(F)(F)F.O=C(c1cocn1)N1CCC2(CC1)CC(Oc1ccccn1)CO2 (centres undefined)	-13.11	-	-	-	-
[H][C@]12CNC[C@@]1(C(=O)NCCc1ncccc1C)CN(S(C)(=O)=O)C2	29.65	-	-	-	-
O=C(c1cnn(-c2ccccc2Cl)c1)N1CCN(CCO)CC1	-7.892	3.152	6.087	-5.27	-0.01378
CCN1CC(C(=O)N2CC(Oc3ccccc3F)C2)CC1=O (centres undefined)	25.49	5.102	-2.545	-11.45	-0.3712
Cc1cccc(NC(=O)[C@@H]2CCCN2Cc2nc(C)c(C)o2)n1	14.16	8.333	3.719	3.573	4.529
Oc1ccc(Cl)cc1CNCc1ccccc1Cl	12.37	1.554	0.7856	-4.605	2.116
Cc1ccc(S(=O)(=O)NCC2CNCCOC2)cc1Cl (centres undefined)	16.01	11.6	-41.65	-0.6372	1.687
Cn1cncc1-c1nnc([C@H]2CCN(Cc3cccnc3)C2)o1	14.63	3.483	7.662	-4.456	1.56
[H][C@]12CC[C@]([H])(CN(C3Cc4ccccc4C3)C1)N(C(=O)N1CCOCC1)C2	1.636	-	-	-	-

The last 3 entries again:

| structure | A | B | C | D | E |
|---|---|---|---|---|---|
| `Cc1ccc(S(=O)(=O)NCC2CNCCOC2)cc1Cl` (centres undefined) | 16.01 | 11.6 | -41.65 | -0.6372 | 1.687 |
| `Cn1cncc1-c1nnc([C@H]2CCN(Cc3cccnc3)C2)o1` | 14.63 | 3.483 | 7.662 | -4.456 | 1.56 |
| `[H][C@]12CC[C@]([H])(CN(C3Cc4ccccc4C3)C1)N(C(=O)N1CCOCC1)C2` | 1.636 | - | - | - | - |